Source: PubChem BioAssay AID1259267 (Sanger Institute, 2017)
In all, the deposit lists 794 reagents; shown is an unselected part. Of all reagents, 9 (1.1%) got an active call. 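Viability capped at 1; calls reflect loss of viability from knock-down alone, not synergy with drugs.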 Further read-outs or replicates are left out here. The record does not give: the amount of reagent, the time to read-out.

Assay: 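Essential and drug-synergistic knock-downs in GP5D bowel cancer cells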 (primary screen)
Cells: human GP5D colorectal cancer cells
Knock-down reagent: siRNA pool against human genes
Challenge: anchor drugs at low dose: BYL719 1 µM, cetuximab 5 µg/ml, trametinib 10 nM, or DMSO vehicle
Measurement: 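Viability against non-targeting pool, replicate mean: robust z-score for knock-down alone, fraction with DMSO, synergy with BYL719 1 µM, cetuximab 5 µg/ml, trametinib 10 nM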
Direction: robust z-score, knock-down alone: higher = more viable cells
Active means: 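a robust z-score below -3 for the knock-down by itself makes a gene active, i.e. essential alone; synergy scores are ignored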
Calls: active = essential alone; inactive = not essential

gene | robust z-score, knock-down alone | activity call
MAST3 (microtubule associated serine/threonine kinase 3) | -1.94 | inactive
TAB1 (TGF-beta activated kinase 1 (MAP3K7) binding protein 1) | 0.817 | inactive
VRK1 (VRK serine/threonine kinase 1) | -1.33 | inactive
SRPK1 (SRSF protein kinase 1) | 0.817 | inactive
NEK4 (NIMA related kinase 4) | 0.817 | inactive
IRAK3 (interleukin 1 receptor associated kinase 3) | -0.783 | inactive
MAK (male germ cell associated kinase) | -2.35 | inactive
GALK1 (galactokinase 1) | -0.846 | inactive
DLG2 (discs large MAGUK scaffold protein 2) | 0.817 | inactive
GCK (glucokinase) | -0.145 | inactive
SPHK1 (sphingosine kinase 1) | 0.817 | inactive
STK40 (serine/threonine kinase 40) | 0.627 | inactive
CAMK2B (calcium/calmodulin dependent protein kinase II beta) | 0.233 | inactive
TWF1 (twinfilin actin binding protein 1) | -1.03 | inactive
PRKCB (protein kinase C beta) | 0.144 | inactive
EFNA4 (ephrin A4) | 0.0233 | inactive
DCLK2 (doublecortin like kinase 2) | 0.356 | inactive
EFNA3 (ephrin A3) | -0.961 | inactive
EIF2AK2 (eukaryotic translation initiation factor 2 alpha kinase 2) | 0.817 | inactive
NR4A2 (nuclear receptor subfamily 4 group A member 2) | -0.889 | inactive
MAGI2 | 0.817 | inactive
MAP2K1 (mitogen-activated protein kinase kinase 1) | -1.69 | inactive
TLK1 (tousled like kinase 1) | -0.237 | inactive
TAOK3 (TAO kinase 3) | 0.514 | inactive
CALM3 (calmodulin 3) | 0.311 | inactive
CDKL2 (cyclin dependent kinase like 2) | 0.817 | inactive
GUCY2C (guanylate cyclase 2C) | -0.274 | inactive
TRPM7 | 0.817 | inactive
ALK (ALK receptor tyrosine kinase) | -1.59 | inactive
PANK1 (pantothenate kinase 1) | 0.817 | inactive
CDC7 (cell division cycle 7) | 0.817 | inactive
ZC3H11A (zinc finger CCCH-type containing 11A) | 0.558 | inactive
CLK2 (CDC like kinase 2) | 0.817 | inactive
SRP72 (signal recognition particle 72) | -0.771 | inactive
CIB2 (calcium and integrin binding family member 2) | -1.84 | inactive
RPS6KA3 (ribosomal protein S6 kinase A3) | 0.817 | inactive
POLR2B (RNA polymerase II subunit B) | -1.83 | inactive
ULK2 (unc-51 like autophagy activating kinase 2) | -0.576 | inactive
TSSK2 (testis specific serine kinase 2) | -0.0341 | inactive
SGK2 (serum/glucocorticoid regulated kinase 2) | -0.103 | inactive
EPHB6 (EPH receptor B6) | 0.817 | inactive
PFKFB1 (6-phosphofructo-2-kinase/fructose-2,6-biphosphatase 1) | -0.88 | inactive
PRKCH (protein kinase C eta) | 0.817 | inactive
RET (ret proto-oncogene) | 0.817 | inactive
ATP23 | -1.35 | inactive
DUSP21 (dual specificity phosphatase 21) | 0.817 | inactive
SMAD4 (SMAD family member 4) | -0.0947 | inactive
MED12 (mediator complex subunit 12) | 0.817 | inactive
LATS1 (large tumor suppressor kinase 1) | -0.2 | inactive
TCF12 (transcription factor 12) | -0.415 | inactive

Entries above whose gene name begins with D or d (3):
gene | robust z-score, knock-down alone | activity call
DLG2 (discs large MAGUK scaffold protein 2) | 0.817 | inactive
DCLK2 (doublecortin like kinase 2) | 0.356 | inactive
DUSP21 (dual specificity phosphatase 21) | 0.817 | inactive
